# Test results taken from paper doi:10.1101/2021.12.28.474342.
# Amino acid sequences for entries named in this document (tags omitted).
# UniProt O08573: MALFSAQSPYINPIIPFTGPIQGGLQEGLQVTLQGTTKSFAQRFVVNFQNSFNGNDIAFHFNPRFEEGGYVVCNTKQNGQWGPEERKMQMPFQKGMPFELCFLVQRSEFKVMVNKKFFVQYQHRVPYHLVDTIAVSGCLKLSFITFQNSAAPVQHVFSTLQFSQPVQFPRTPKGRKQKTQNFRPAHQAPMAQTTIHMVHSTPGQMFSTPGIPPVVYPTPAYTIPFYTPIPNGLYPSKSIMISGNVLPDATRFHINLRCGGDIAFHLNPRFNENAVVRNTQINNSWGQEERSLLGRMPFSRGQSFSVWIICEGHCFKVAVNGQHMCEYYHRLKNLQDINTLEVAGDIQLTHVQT
# No constants are given. Whether binding was seen depends on the method and setting. In cells and extracts the contact can be indirect. Some results given as binding are weak or reduced against the parent protein; the word gives no strength. Where a sequence is shown, tags or fusion partners need not be part of it.
# Biological target: T1, GFP-mGBP2 WT (full-length mGBP2 with N-terminal GFP) (mouse) (UniProt Q9Z0E6)
# T1 sequence: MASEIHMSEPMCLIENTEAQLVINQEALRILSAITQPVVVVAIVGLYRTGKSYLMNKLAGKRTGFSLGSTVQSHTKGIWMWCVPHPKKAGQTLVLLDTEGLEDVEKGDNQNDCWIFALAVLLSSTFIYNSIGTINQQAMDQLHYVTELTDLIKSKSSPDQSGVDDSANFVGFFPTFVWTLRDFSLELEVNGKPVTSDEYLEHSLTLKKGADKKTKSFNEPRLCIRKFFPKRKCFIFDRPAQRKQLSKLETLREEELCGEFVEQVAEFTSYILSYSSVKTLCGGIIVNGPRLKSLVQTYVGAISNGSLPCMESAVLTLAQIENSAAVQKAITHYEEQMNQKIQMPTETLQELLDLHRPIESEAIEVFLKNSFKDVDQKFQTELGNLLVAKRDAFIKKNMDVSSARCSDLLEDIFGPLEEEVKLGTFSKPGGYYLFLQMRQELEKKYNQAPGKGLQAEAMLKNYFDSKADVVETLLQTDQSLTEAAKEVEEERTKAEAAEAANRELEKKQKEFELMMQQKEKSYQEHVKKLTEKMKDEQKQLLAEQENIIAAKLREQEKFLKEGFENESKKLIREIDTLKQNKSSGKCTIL
# Assay: co-IP
substance,measurement,value
mCherry-Gal9 (Galectin 9 with N-terminal mCherry) (from UniProt O08573 1-353),binding,binds
